In this series the test system is lymphatic system of dogs. As to the kind of experiment: Lymphography comparison of A, B and C after direct and indirect administration. The format is in vivo. Particulars: lymphography with A or B. The procedure:
The following table compares the advantageous effects of the compounds of this invention in lymphography, using as test substances thiodipropionic acid bis[3,5-bis-(2,3-dihydroxypropyl-N-methylcarbamoyl)-2,4,6-triiodoanilide] (A) and 4,4,6,6-tetramethyl-4,6-disila-5-oxanonanedioic acid bis[3,5-bis(2,3-dihydroxypropyl-N-methylcarbamoyl)-2,4,6-triiodoanilide] (B) in comparison with the fatty acid ethyl ester of iodinated oleum papaveris (C). The test results were determined on dogs using testing methods conventional in lymphography after direct and indirect administration.

No dose or concentration is given here for some results.

For the molecule `CN(CC(O)CO)C(=O)c1c(I)c(NC(=O)CC[Si](C)(C)O[Si](C)(C)CCC(=O)Nc2c(I)c(C(=O)N(C)CC(O)CO)c(I)c(C(=O)N(C)CC(O)CO)c2I)c(I)c(C(=O)N(C)CC(O)CO)c1I` (centres unmarked) [B, 4,4,6,6-tetramethyl-4,6-disila-5-oxanonanedioic acid bis[3,5-bis(2,3-dihydroxypropyl-N-methylcarbamoyl)-2,4,6-triiodoanilide]], the Treatment period was at most 4 h.
`CN(CC(O)CO)C(=O)c1c(I)c(NC(=O)CCSCCC(=O)Nc2c(I)c(C(=O)N(C)CC(O)CO)c(I)c(C(=O)N(C)CC(O)CO)c2I)c(I)c(C(=O)N(C)CC(O)CO)c1I` (centres unmarked) [A, thiodipropionic acid bis[3,5-bis-(2,3-dihydroxypropyl-N-methylcarbamoyl)-2,4,6-triiodoanilide]]: the Treatment period is at most 4 h.

The values are drawn from patent publication US4367216A, “Triiodinated 5-aminoisophthalic acid derivatives” (Schering Aktiengesellschaft, priority 1979, dated 1983).
